Test results as given in article PMC12155224, “Rare missense variants of the leukocyte common antigen related receptor (LAR) display reduced activity in transcellular adhesion and synapse formation” (Research Square, 2025).
No constants are given. Whether binding was seen depends on the method and setting. Some results given as binding are weak or reduced against the parent protein; the word gives no strength. Tags and fused reporters may be left off the sequences shown.

Target: T1, LAR FN1–4 P381S (human) (UniProt P10586)
T1 sequence (chain, RED-tris-NTA 2nd generation dye on the His tag): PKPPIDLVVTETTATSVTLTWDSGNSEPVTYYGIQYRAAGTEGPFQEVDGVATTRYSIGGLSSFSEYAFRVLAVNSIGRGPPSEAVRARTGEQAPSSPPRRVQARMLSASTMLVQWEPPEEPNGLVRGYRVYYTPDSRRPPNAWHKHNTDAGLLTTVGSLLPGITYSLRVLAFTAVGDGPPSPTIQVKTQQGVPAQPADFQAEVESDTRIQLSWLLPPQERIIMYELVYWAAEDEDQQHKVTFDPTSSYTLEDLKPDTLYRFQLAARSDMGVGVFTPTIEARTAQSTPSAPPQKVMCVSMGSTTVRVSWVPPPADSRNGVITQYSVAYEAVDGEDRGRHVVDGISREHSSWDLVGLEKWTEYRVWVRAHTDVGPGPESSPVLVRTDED
Assay: MST; His-tagged LAR FN1–4 labelled with RED-tris-NTA, 100 nM; NGL-3 in 1:1 dilution series; 25 mM HEPES pH 7.5, 150 mM NaCl, 0.005 % Tween20; 1 h at RT; Monolith NT.115, medium MST power; MST on time 2.5 s; 1:1 KD model; both purified

B1: NGL-3 ECD (extracellular domain of Netrin-G ligand 3, Fc cleaved off) (domain or fragment, UniProt Q9NT99 36-576)
chain: AGGGGVAVTSAAGGGSPPATSCPVACSCSNQASRVICTRRDLAEVPASIPVNTRYLNLQENGIQVIRTDTFKHLRHLEILQLSKNLVRKIEVGAFNGLPSLNTLELFDNRLTTVPTQAFEYLSKLRELWLRNNPIESIPSYAFNRVPSLRRLDLGELKRLEYISEAAFEGLVNLRYLNLGMCNLKDIPNLTALVRLEELELSGNRLDLIRPGSFQGLTSLRKLWLMHAQVATIERNAFDDLKSLEELNLSHNNLMSLPHDLFTPLHRLERVHLNHNPWHCNCDVLWLSWWLKETVPSNTTCCARCHAPAGLKGRYIGELDQSHFTCYAPVIVEPPTDLNVTEGMAAELKCRTGTSMTSVNWLTPNGTLMTHGSYRVRISVLHDGTLNFTNVTVQDTGQYTCMVTNSAGNTTASATLNVSAVDPVAAGGTGSGGGGPGGSGGVGGGSGGYTYFTTVTVETLETQPGEEALQPRGTEKEPPGPTTDGVWGGGRPGDAAGPASSSTTAPAPRSSRPTEKAFTVPITDVTENALKDLDDVMKTTK
- binding: binds
